The values that follow come from paper PMC6706379.

Protein sequences, listed by entry. Tags and fused reporters are not part of them.
UniProt P08207: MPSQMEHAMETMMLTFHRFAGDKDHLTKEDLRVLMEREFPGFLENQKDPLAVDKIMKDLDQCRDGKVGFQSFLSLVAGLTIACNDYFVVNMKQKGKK
UniProt O35111: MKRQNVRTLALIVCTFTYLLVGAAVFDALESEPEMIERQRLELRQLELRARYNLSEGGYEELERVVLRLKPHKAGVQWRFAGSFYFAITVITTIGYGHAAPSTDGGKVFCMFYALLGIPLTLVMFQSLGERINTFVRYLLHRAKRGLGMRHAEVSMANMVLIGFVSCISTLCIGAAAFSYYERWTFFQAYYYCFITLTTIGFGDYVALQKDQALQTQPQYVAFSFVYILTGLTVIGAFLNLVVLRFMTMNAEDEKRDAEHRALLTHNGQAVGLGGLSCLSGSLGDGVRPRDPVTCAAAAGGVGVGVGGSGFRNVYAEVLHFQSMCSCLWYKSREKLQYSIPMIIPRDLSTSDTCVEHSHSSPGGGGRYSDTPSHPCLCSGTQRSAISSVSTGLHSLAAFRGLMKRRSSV

These are yes or no findings as the source states them, for the method shown. Binding seen in cells or lysates may run through a third protein. Some results given as binding are weak or reduced against the parent protein; the word gives no strength.

The target of this assay is adaptor protein p11 (S100A10) (mouse (endogenous in adult CD1 mouse brain)) (UniProt P08207). Description: co-IP; anti-p11 antibody (10 ug, R&D systems) on Pierce co-immunoprecipitation resin; adult mouse (CD1) brain homogenate in 50 mM Tris, 150 mM NaCl, 1 mM EDTA, 1% NP40, 5% glycerol, pH 7.4, overnight at 4 °C; two elutions (E1, E2) immunoblotted for p11 and TASK1; anti-sheep IgG as control.

Turning to “TASK1 (TWIK-related acid-sensitive K+ subunit 1) (from UniProt O35111 1-409)”, the binding entry was “binds”.
